Data on one molecule can be found in US20060046250A1 (SEOUL NATIONAL UNIVERSITY INDUSTRY FOUNDATION, published 2006).

Chains of the proteins cited; added tags and fusions are not shown.
UniProt Q13535: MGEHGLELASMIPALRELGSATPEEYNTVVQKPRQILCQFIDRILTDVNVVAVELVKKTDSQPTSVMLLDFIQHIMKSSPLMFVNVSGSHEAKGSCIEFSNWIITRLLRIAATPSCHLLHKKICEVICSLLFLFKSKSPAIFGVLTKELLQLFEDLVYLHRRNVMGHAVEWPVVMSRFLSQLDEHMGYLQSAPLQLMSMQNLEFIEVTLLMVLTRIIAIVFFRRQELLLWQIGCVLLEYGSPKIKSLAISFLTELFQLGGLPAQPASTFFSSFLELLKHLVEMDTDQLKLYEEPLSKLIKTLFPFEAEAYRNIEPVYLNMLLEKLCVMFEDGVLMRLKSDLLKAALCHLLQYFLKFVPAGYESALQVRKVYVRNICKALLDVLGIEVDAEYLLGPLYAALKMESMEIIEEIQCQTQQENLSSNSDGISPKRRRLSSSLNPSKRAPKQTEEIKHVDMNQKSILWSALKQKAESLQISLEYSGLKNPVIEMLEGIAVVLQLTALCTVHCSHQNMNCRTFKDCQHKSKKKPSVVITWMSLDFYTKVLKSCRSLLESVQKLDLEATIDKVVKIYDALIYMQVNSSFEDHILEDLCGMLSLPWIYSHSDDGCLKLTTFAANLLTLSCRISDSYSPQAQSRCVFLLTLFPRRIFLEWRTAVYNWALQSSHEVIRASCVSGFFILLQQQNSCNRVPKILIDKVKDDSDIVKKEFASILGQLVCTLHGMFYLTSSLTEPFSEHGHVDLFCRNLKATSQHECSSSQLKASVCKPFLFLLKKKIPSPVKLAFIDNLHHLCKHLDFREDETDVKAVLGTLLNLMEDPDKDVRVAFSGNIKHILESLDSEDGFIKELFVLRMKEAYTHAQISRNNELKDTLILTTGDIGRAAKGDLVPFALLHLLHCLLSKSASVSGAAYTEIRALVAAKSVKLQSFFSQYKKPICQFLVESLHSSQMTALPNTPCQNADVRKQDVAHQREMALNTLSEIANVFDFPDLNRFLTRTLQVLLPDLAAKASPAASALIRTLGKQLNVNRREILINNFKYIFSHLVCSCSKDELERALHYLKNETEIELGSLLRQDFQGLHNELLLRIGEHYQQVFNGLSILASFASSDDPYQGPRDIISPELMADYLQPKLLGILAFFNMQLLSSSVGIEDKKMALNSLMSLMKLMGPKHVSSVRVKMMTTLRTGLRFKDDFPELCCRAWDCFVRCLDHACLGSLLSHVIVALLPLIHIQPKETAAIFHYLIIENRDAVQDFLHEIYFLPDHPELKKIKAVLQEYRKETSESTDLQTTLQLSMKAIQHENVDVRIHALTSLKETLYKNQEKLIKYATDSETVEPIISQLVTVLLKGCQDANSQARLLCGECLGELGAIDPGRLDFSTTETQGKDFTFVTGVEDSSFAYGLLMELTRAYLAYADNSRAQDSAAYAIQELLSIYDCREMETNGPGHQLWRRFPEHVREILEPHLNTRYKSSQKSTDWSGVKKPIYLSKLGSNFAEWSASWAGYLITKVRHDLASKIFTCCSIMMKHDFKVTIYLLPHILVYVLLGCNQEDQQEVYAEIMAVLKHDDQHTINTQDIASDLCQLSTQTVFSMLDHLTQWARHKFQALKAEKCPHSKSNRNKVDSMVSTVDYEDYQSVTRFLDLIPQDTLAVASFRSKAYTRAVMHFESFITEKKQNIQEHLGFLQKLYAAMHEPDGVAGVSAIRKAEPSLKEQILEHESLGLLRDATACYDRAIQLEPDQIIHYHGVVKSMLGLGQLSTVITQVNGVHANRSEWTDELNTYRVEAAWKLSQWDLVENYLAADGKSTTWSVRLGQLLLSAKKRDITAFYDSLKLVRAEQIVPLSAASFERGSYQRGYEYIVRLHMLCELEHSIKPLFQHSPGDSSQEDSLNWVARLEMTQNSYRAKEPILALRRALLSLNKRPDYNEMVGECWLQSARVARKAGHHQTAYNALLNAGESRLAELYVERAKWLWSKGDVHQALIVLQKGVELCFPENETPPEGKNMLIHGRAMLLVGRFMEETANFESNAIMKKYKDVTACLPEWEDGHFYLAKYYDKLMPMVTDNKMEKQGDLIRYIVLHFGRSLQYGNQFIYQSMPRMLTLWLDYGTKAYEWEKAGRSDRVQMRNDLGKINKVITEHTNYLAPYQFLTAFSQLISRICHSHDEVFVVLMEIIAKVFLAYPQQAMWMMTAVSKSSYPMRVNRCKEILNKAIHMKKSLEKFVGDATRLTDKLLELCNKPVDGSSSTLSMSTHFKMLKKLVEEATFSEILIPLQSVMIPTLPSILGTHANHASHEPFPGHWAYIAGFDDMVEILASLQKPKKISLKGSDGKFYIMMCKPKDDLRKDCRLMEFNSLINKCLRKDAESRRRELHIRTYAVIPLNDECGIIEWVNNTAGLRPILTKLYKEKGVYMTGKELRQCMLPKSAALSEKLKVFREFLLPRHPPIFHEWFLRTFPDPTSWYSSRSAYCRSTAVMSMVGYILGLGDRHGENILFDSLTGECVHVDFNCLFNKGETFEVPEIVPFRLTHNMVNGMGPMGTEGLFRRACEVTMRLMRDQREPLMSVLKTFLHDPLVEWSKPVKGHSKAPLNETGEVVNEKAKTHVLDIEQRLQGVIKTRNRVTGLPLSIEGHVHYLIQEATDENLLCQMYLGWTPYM

Experiment [1] has as its target flag-tagged ATR (UniProt Q13535). The experiment is described as follows: co-immunoprecipitation from transfected 293 cells with an anti-FLAG antibody, Western blot with an anti-AIM3 antibody.
Experiment [2] has the same target. The experiment is described as follows: co-immunoprecipitation (summary of FIGS. 8a to 8c).

These are yes or no findings as the source states them, for the method shown. Binding seen in cells or lysates may run through a third protein. Some binding calls cover weakened binding; strength is not graded here.

B1: AIM3 (ARS-interacting multifunctional protein 3) (protein)
chain: AAAAELSLLEKSLGLSKGNKYSAQGERQIPVLQTNNGPSLTGLTTIAAHLVKQANKEYLLGSTAEEKAIVQQWLEYRVTQVDGHSSKNDIHTLLKDLNSYLEDKVYLTGYNFTLADILLYYGLHRFIVDLTVQEKEKYLNVSRWFCHIQHYPGIRQHLSSVVFIKNRLYTNSH
As to B1, the binding entry in the experiment with flag-tagged ATR [1] and with flag-tagged ATR [2] was “binds” throughout.
